# Molecular target: T1, human CAT1 (SLC7A1) (Homo sapiens, UniProt P30825)
# Sequences of proteins named here, by UniProt entry; tags and fusion partners are left off. A change or cut given only in a name is not applied to a line headed by its entry.
# UniProt P30825: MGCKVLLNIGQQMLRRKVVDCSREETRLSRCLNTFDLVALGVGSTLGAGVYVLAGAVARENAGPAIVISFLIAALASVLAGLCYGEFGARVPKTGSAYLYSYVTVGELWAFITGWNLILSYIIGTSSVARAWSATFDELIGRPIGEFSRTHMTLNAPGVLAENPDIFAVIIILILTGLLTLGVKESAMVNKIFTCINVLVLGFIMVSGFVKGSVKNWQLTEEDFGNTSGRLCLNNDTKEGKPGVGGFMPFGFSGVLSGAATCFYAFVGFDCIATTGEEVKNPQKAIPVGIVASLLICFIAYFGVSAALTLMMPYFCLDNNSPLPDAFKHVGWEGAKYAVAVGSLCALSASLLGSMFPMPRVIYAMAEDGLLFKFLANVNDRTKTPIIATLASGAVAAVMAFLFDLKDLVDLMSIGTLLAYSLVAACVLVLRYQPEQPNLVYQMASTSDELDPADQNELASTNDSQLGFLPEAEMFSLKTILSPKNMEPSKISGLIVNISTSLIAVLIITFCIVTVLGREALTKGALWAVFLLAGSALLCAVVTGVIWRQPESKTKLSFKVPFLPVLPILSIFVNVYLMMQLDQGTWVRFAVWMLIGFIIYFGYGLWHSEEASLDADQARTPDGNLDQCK
# T1 construct: expressed in transfected cells
# Assay: Inhibition of CAT1-mediated substrate uptake in HEK CAT1 cells
# Assay type: cell-based
# Description: Cell lines and basic cell culture conditions have previously been described, [24]. The original choice of human embryonic kidney cells (HEK293) cells for transfection with CAT1-, CAT2A- or CAT2B- was based on their reliable growth and well established propensity for transfection and cellular uptake experiments. In brief, uptake assays were performed using [^3H]-labeled substrate and human embryonic kidney (HEK293) cells stably overexpressing the empty vector only (HEK VCG418 and HEK VChygro, depending on selection conditions) or human CAT1 (HEK CAT1, gene: SLC7A1, NM_003045.4), CAT2A (HEK CAT2A, gene: SLC7A2A, NM_003046.5) or CAT2B (HEK CAT2B, SLC7A2B, NM_001008539.3). […]
# The transport assays were performed as previously described with minor modifications, [24]. […] In order to identify the period of linear L-homoarginine uptake time dependence was assessed. […]
# After cooling to 0 °C the cells were washed three times with ice-cold transport buffer and lysed with 0.2% SDS. The intracellular accumulation of radioactivity was determined by liquid scintillation counting (TriCarb 2800; PerkinElmer Life and Analytical Sciences, Inc.) after adding 4 ml of scintillation solution (Ultima Gold XR; PerkinElmer Life and Analytical Sciences, Inc., Rodgau-Jügesheim, Germany). […]
smiles,measurement,value
N=C(N)NCCC[C@H](N)C(=O)O [L-arginine],IC50,259 µM

# Source: publication PMC5500509, “The prognostic biomarker L-homoarginine is a substrate of the cationic amino acid transporters CAT1, CAT2A and CAT2B” (Scientific Reports, 2017)
